# Experimental data published in PubChem BioAssay AID540256 (National Center for Advancing Translational Sciences (NCATS), 2011).
# The whole screen tested about 300,000 compounds, of which about 3,700 (1.2%) were called active. This list was built around the results that the source calls inconclusive (neither active nor inactive); the mix of calls is not that of the screen. Calls come from the whole dose curve; tested in HEK293 cells. A potency beside an inconclusive call is a rough fit, not a confirmed value.
# Test: qHTS for Inhibitors of binding or entry into cells for Lassa Virus; note: nearly all actives have a fitted effect of over 50% in size
# Settings: Lassa virus pseudotype entry inhibition, cell reporter; activity change, negative = inhibition: at 37.9 µM (top of the series) unless noted
# % is set by controls: 0 for no effect and ±100 for the full control effect; potency is the fitted concentration of half-maximal effect.
SMILES,Potency,"activity change, negative = inhibition"
COc1ccccc1NC(=O)c1sc2cccc(Cl)c2c1Cl,"inconclusive: 15.8 µM [activator, single point]",–
CCOc1ccc(CCNC(=O)c2cc3c(=O)n(C)c4ccccc4c3s2)cc1OCC,–,inactive: 26% [at 46.1 µM]
Cc1nc(N)c(Cc2ccc(Cl)cc2Cl)c(N)n1,"inconclusive: 35.5 µM [inhibitor, single point]",–
CC(C)NCC(O)COc1ccc2c(c1)CCC2 (stereo unspecified),"inconclusive: 3.98 µM [activator, full curve, poor fit]",–
CC(C)n1cc(/C=C/c2cc[n+](C)cc2)c2ccccc21,"inconclusive: 12.6 µM [inhibitor, single point]",–
CC(C)COc1ccc(C(=O)N/C(=C\c2cccc([N+](=O)[O-])c2)C(=O)O)cc1,–,inactive: 8.69%
CCn1c(N2CCC(Cc3ccccc3)CC2)nc2c1c(=O)[nH]c(=O)n2C,"inconclusive: 17.8 µM [inhibitor, partial curve, poor fit]",–
Cc1cc(C)c(S(=O)(=O)NCC(c2ccco2)N2CCN(c3ccccc3)CC2)c(C)c1 (stereo unspecified),–,inactive: 0.106% [at 46.1 µM]
Cc1ccc(-n2nc3c(=O)n(CCCC(=O)NCc4ccc(F)cc4)nc(C)c3c2C)cc1,–,inactive: 2.57% [at 46.1 µM]
O=C(NCCSc1c(-c2ccc(Cl)cc2)[nH]c2ccccc12)c1ccc(S(=O)(=O)N2CCOCC2)cc1,"inconclusive: 7.94 µM [inhibitor, single point]",–
Cc1ccc(S(=O)(=O)N2CCN(c3c([N+](=O)[O-])cc(C(F)(F)F)cc3[N+](=O)[O-])CC2)cc1,–,inactive: -18.8%
COc1ccc(Nc2ncnc3c2cnn3C)c(OC)c1,–,inactive: 28.8% [at 46.1 µM]
CCOc1cc(C(=O)N/N=C(\C)Cc2ccc(OC)cc2)cc(OCC)c1OCC,"inconclusive: 0.58 µM [inhibitor, full curve, poor fit]",–
Cc1cc(C)n(-c2ccc(C(=O)Nc3nnc(C)s3)cc2)n1,–,inactive: 1.56%
Cc1cc(C(=O)N2CCCC(N3CCN(c4cccc(Cl)c4)CC3)C2)n(C)n1 (stereo unspecified),"inconclusive: 6.31 µM [inhibitor, partial curve]",–
O=S(=O)(Nc1ccc(-c2ccc(N3CCCCCC3)nn2)cc1)c1ccc(C(F)(F)F)cc1,"inconclusive: 20 µM [activator, single point]",–
COc1ccc(C)cc1N(C(=O)COc1cccc(F)c1)c1nc2ccccc2s1,–,inactive: 15.4%
CN(c1ccc(OCC(=O)N2CCCCC2)cc1)S(=O)(=O)c1cccs1,"inconclusive: 22.4 µM [inhibitor, single point]",–
CC(=O)c1ccc(N(C(=O)CNC(=O)c2cccs2)C(C(=O)NCC2CCCO2)c2ccccc2)cc1 (stereo unspecified),"inconclusive: 35.5 µM [activator, single point]",–
CCCCOc1ccc(-c2nnc(-c3cc[n+](C)cc3)o2)cc1,–,inactive: 2.98%
CC1=CN2C(=N)/C(=C/c3ccc(C)o3)C(=O)N=C2S1,active: 1.26 µM,–
Cc1ccc(NC(=O)/C=C/c2ccc3c(c2)OCO3)cc1S(=O)(=O)N1CCOCC1,"inconclusive: 23.1 µM [inhibitor, single point]",–
COc1ccccc1NC(=O)Nc1ccc(-n2ccc(C(F)(F)F)n2)cc1,"inconclusive: 35.5 µM [inhibitor, partial curve, poor fit]",–
CCNC(=O)c1c(NC(=O)c2cc(=O)c3ccc(C)c(C)c3o2)sc2c1CCCC2,"inconclusive: 6.31 µM [activator, partial curve, poor fit]",–

# Two consecutive entries out of the list so far:
SMILES,Potency,"activity change, negative = inhibition"
CC1=CN2C(=N)/C(=C/c3ccc(C)o3)C(=O)N=C2S1,active: 1.26 µM,–
Cc1ccc(NC(=O)/C=C/c2ccc3c(c2)OCO3)cc1S(=O)(=O)N1CCOCC1,"inconclusive: 23.1 µM [inhibitor, single point]",–

# (list continues)

SMILES,Potency,"activity change, negative = inhibition"
Cc1sc(NC(=O)CSc2nc(N)n(CC(=O)c3ccccc3)n2)c(C#N)c1C,"inconclusive: 6.51 µM [activator, single point]",–
Cc1ccc(NC(=O)CCNC(=O)c2ccc([N+](=O)[O-])cc2)cc1S(=O)(=O)N(C)C,"inconclusive: 6.31 µM [inhibitor, partial curve, poor fit]",–
CCOC(=O)c1c(C)n(C(C)C)c2ccc(OC(=O)c3ccc(N4C(=O)CCC4=O)cc3)cc12,"inconclusive: 35.5 µM [inhibitor, single point]",–
Cc1cccc(C(=O)NNC(=O)c2ccc(Cl)cc2)c1O,–,inactive: 2.15%
O=C(CCNC(=O)c1ccc(Br)cc1)Nc1cc(Cl)ccc1-n1cncn1,–,inactive: 8.11%
COc1cc2c(cc1OC)-c1cc(Nc3cccc(C)c3)nc(=O)n1CC2,"inconclusive: 11.2 µM [inhibitor, partial curve, poor fit]",–
CC1CCN(C(=O)COC(=O)Cn2cnc3ccccc32)CC1,–,inactive: -12.8%
Cc1ccc(C)c(NC(=O)CCn2cnnn2)c1,"inconclusive: 5.17 µM [activator, partial curve, poor fit]",–
COc1ccc2c(c1)/C(=C/c1cc(OC)c(OC)c(OC)c1)C(=O)N2,"inconclusive: 2.24 µM [inhibitor, full curve]",–
O=C(Nc1ccccc1C(=O)OCc1cc(=O)n2c3c(sc2n1)CCCC3)c1ccc(Cl)cc1,"inconclusive: 14.1 µM [activator, single point]",–
CCOc1cc(/C=N/NC(N)=O)cc(Br)c1OCC(=O)Nc1cccc2ccccc12,–,inactive: -21.5%
COc1cc(OC)cc(C(=O)NC(=S)N(Cc2ccccc2)C(C)C)c1,"inconclusive: 35.5 µM [inhibitor, single point]",–
Cc1nnc(N2CCN(c3ccccc3)CC2)c2c1nnn2Cc1ccc(F)cc1,–,inactive: 3.22% [at 46.1 µM]
O=C(Cn1c(=S)[nH]c2ccccc2c1=O)N1CCC2(CC1)OCCO2,–,inactive: 1.22%
CCOC(=O)c1[nH]c(C)c(CCC(=O)N2CCN(c3cc(Cl)ccc3C)CC2)c1C,–,inactive: -25.5% [at 46.1 µM]
CCOC(=O)c1c(C)[nH]c(C)c1S(=O)(=O)N1CCCC(C(=O)N2CCN(c3ccc(Cl)cc3)CC2)C1 (stereo unspecified),–,inactive: -6.64% [at 46.1 µM]
COc1ccc(NS(=O)(=O)c2ccc(SC)cc2)cc1,"inconclusive: 10.3 µM [activator, partial curve]",–
O=C(/C=C/Nc1ccc(F)cc1)c1cccs1,"inconclusive: 8.91 µM [inhibitor, partial curve, poor fit]",–
Cc1cc(C(=O)CS(=O)(=O)c2ccc(F)cc2)cc(C)c1O,–,inactive: 25.3%
COc1ccc(C2CC(=O)c3cnc(Nc4cc(C)cc(C)c4)nc3C2)cc1 (stereo unspecified),active: 0.461 µM,–
O=C(CN1CCN(Cc2ccc(Cl)cc2)CC1)N/N=C/c1ccncc1,–,inactive: -12.6%
CC(=O)c1cccc(NC(=O)Cn2cnc3c2c(=O)n(C)c(=O)n3C)c1,–,inactive: -2.05% [at 46.1 µM]
CC1=NC(C)(C)Cc2ccccc21,"inconclusive: 6.51 µM [inhibitor, single point]",–
CC(Oc1ccc2ccccc2c1)C(=O)NNC(=O)Nc1ccccc1 (stereo unspecified),–,inactive: -1.46%

SMILES,Potency,"activity change, negative = inhibition"
COc1ccc(-n2c(CCC(=O)O)ccc2-c2ccccc2)cc1,"inconclusive: 3.55 µM [activator, partial curve, poor fit]",–
CCOC(=O)c1cccc(NC(=O)Cc2ccc(NC(=O)N3CCCCc4ccccc43)cc2)c1,–,inactive: -14.8% [at 46.1 µM]
CCC(=O)N1CCc2cc(Br)cc(S(=O)(=O)N3CCCC(C(=O)Nc4ccc(CC)cc4)C3)c21 (stereo unspecified),"inconclusive: 1.78 µM [inhibitor, full curve, poor fit]",–
O=C(NC(=S)/C(=C1\CCCCCN1)[N+](=O)[O-])c1ccccc1,"inconclusive: 1.58 µM [inhibitor, full curve, poor fit]",–
CCN1CCN(c2ccc(S(=O)(=O)N3CCCCC3)cc2NC(=O)c2ccc(F)cc2)CC1,–,inactive: 10.9%
CC(C)(C)c1ccc(-c2nc(-c3ccncc3)no2)cc1,"inconclusive: 22.4 µM [inhibitor, single point]",–
Cc1cc(C)c(S(=O)(=O)NCC(c2ccco2)N2CCc3ccccc3C2)c(C)c1 (stereo unspecified),"inconclusive: 35.5 µM [inhibitor, single point]",–
COc1ccc(NC(=O)COC(=O)Cc2c[nH]c3ccccc23)cc1Cl,"inconclusive: 0.562 µM [inhibitor, full curve, poor fit]",–
O=C(Nc1ccccc1Br)C1CCN(S(=O)(=O)c2cccs2)CC1,–,inactive: 3.36%
O=C(NC1CCCCC1)c1cc(-c2ccco2)on1,"inconclusive: 2 µM [activator, partial curve, poor fit]",–
CCOc1ccccc1CNS(=O)(=O)c1cnc(N)nc1,–,inactive: 19.2% [at 46.1 µM]
COc1ccc(C(C#N)=Cc2ccc(NC(C)=O)cc2)cc1,"inconclusive: 6.31 µM [activator, single point]",–
Cc1ccc(C(=O)Nc2ccc(Cc3ccncc3)cc2)cc1[N+](=O)[O-],"inconclusive: 35.5 µM [inhibitor, single point]",–
Cc1cnc2c(c1SCC(=O)N(C)c1ccccc1)c(=O)n(C)c(=O)n2C,–,inactive: 21.4% [at 46.1 µM]
CNC(=O)c1c(Cl)cnn1-c1ccc(C)cc1,–,inactive: 2.75%
Cn1c(=O)c2c(-c3ccccc3Br)n(C(C)(C)C)cc2n(C)c1=O,"inconclusive: 35.5 µM [inhibitor, single point]",–
CCOC(=O)CSc1nc2sc3c(c2c(=O)n1CC)CCCC3,"inconclusive: 35.5 µM [inhibitor, single point]",–
Cc1ccnc(N/N=C/c2ccccc2)n1,"inconclusive: 35.5 µM [inhibitor, single point]",–
CCOc1ccc2nc(NC(=O)CSc3ccccc3)sc2c1,"inconclusive: 14.1 µM [inhibitor, partial curve, poor fit]",–
Cc1cccc(CSc2nc3c(cc2C#N)CCC3)c1,–,inactive: 15.7%
CCN1CCN(/C=N/c2nc3c(s2)CCCC3)CC1,"inconclusive: 7.3 µM [inhibitor, partial curve, poor fit]",–
Cc1ccc(NC(=O)Nc2cccs2)nc1,–,inactive: 28.8%
Cc1cc2c(cc1S(=O)(=O)N1CCc3ccccc31)NC(=O)CO2,"inconclusive: 20 µM [inhibitor, partial curve, poor fit]",–
